Measurements published in patent US20210009707A1.
Results are given in words; binding and its absence hold for the method and conditions named. Some results given as binding are weak or reduced against the parent protein; the word gives no strength.

Chains of the proteins cited; added tags and fusions are not shown. Lines headed by an entry give the natural chain unless they say otherwise; changes in a name come on top.
UniProt O60603: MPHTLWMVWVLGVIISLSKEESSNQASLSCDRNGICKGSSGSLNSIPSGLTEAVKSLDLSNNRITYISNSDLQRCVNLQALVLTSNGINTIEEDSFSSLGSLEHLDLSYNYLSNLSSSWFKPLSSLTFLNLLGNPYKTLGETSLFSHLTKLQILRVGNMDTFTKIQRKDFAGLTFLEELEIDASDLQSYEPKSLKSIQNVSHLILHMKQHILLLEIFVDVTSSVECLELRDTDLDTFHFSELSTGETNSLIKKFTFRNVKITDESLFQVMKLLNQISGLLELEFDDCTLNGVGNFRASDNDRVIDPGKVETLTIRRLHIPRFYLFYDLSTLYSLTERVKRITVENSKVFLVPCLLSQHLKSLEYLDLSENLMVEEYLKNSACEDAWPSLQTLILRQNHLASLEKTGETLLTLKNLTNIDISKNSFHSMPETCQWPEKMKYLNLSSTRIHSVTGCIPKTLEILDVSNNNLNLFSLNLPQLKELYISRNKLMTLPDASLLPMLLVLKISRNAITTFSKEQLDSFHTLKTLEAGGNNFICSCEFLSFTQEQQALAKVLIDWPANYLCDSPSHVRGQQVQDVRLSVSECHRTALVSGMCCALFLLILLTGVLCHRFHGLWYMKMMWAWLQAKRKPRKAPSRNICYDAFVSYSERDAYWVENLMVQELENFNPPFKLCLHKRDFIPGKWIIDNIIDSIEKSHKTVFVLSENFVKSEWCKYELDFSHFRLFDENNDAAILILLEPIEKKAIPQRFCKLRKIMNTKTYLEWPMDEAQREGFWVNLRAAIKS

Experiments:
[1] = target: Toll-like Receptor 2 (human TLR2) (human) (UniProt O60603); experiment: TLR2 bone marrow receptor occupancy after repeat dosing in patients
[2] = target: Toll-like Receptor 2 (human TLR2) (human) (UniProt O60603); experiment: receptor occupancy on patient blood PBMCs and bone marrow aspirates after IV dosing
[3] = target: Toll-like Receptor 2 (human TLR2) (human) (UniProt O60603); experiment: TLR2 blood receptor occupancy after single IV dose in patients
[4] = target: Toll-like Receptor 2 (human TLR2) (human) (UniProt O60603); experiment: TLR2 receptor occupancy in patients, told in the conclusion
[5] = target: Toll-like Receptor 2 (human TLR2) (human) (UniProt O60603); experiment: TLR2 receptor occupancy in patients' blood (PBMCs) after a single IV dose of OPN-305, over time after dose (days)
[6] = target: Toll-like Receptor 2 (human TLR2) (human) (UniProt O60603); experiment: TLR2 receptor occupancy in patients' blood (PBMCs) at trough (pre-dose) during repeat IV dosing of OPN-305 every four weeks, by week of dosing
[7] = target: Toll-like Receptor 2 (human TLR2) (human) (UniProt O60603); experiment: TLR2 receptor occupancy in patients' bone marrow aspirates after repeat IV dosing of OPN-305, at predose, week 8 and week 16

- binding [1]: binds
- binding [2]: binds
- binding [3]: binds
- binding [4]: binds
- binding [5]: binds
- binding [6]: binds
- binding [7]: binds
B1: OPN-305 (antibody, human IgG4 S228P, kappa, V domains shown)
VH: QVQLVQSGSELKKPGASVKLSCKASGFTFTTYGINWVRQAPGQGLEWIGWIYPRDGSTNFNENFKDRATITVDTSASTAYMELSSLRSEDTAVYFCARLTGGTFLDYWGQGTTVTVSS
VL: DIVLTQSPATLSLSPGERATLSCRASESVEYYGTSLMQWYQQKPGQPPKLLIFGASNVESGVPDRFSGSGSGTDFTLKISRVEAEDVGMYFCQQSRKLPWTFGGGTKVEIKR
